One substance from PMC5173251 can be followed below.

By UniProt entry, the sequences of proteins in these tests, tags left out.
UniProt Q7KWK5: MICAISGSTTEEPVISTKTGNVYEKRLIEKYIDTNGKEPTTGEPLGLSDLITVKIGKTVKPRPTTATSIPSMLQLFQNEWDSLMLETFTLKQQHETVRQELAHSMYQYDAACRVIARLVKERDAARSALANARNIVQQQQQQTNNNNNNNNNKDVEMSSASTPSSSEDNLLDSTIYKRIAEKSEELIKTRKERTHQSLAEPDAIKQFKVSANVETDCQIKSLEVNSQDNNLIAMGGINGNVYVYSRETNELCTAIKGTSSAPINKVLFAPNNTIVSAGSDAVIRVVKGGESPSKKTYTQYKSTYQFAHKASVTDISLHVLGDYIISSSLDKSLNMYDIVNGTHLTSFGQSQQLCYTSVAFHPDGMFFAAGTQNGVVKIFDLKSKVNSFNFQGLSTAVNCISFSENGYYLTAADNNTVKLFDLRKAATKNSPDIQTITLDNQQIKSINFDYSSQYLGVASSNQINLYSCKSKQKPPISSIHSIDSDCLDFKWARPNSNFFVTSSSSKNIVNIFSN

The experiment has as its target T1, GFP-DdNKAP (full length DdNKAP, aa 1-510) (D. discoideum) (UniProt Q55ED4).
T1 sequence: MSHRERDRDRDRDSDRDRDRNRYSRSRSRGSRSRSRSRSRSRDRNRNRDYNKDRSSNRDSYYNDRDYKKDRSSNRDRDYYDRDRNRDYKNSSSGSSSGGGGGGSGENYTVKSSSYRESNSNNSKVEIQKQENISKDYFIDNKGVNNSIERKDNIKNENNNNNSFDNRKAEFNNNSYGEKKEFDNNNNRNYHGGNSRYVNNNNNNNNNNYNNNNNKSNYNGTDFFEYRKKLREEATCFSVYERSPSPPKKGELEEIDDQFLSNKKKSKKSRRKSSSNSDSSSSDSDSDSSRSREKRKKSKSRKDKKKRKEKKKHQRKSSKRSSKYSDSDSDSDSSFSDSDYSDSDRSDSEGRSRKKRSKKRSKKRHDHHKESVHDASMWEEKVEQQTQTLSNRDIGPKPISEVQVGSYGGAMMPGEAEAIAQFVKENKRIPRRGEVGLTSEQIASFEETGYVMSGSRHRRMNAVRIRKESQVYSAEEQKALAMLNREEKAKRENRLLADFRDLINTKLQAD
The experiment is described as follows: affinity purification with mass spectrometry; lysate of AX2 cells expressing GFP-DdNKAP, immunoprecipitation with anti-GFP mAb K3-184-2; bands cut from SDS gel and identified by MALDI-MS.

Results are given in words; binding and its absence hold for the method and conditions named. In cells and extracts the contact can be indirect. A yes stands for co-enrichment or nearness to the bait. Other partners may have been found. Where a sequence is shown, tags or fusion partners need not be part of it.

In the case of “Prp19 (endogenous) (from UniProt Q7KWK5 1-514)”, the binding result is reported as “binds”.
